These are yes or no findings as the source states them, for the method shown. Binding calls can cover weak binding; strength is not graded here. Tags and fused reporters may be left off the sequences shown. For some of these results: In cells and extracts the contact can be indirect.
B1: YFP^N-RCAR1 (protein, UniProt Q84MC7 1-187)
chain: MMDGVEGGTAMYGGLETVQYVRTHHQHLCRENQCTSALVKHIKAPLHLVWSLVRRFDQPQKYKPFVSRCTVIGDPEIGSLREVNVKSGLPATTSTERLELLDDEEHILGIKIIGGDHRLKNYSSILTVHPEIIEGRAGTMVIESFVVDVPQGNTKDETCYFVEALIRCNLKSLADVSERLASQDITQ
B2: LUC^C-RCAR1 (protein, UniProt Q84MC7 1-187)
chain: B1 chain
B3: RCAR1 (an ABA receptor), yeast two-hybrid fusion (protein, UniProt Q84MC7 1-187)
chain: B1 chain
B4: ABI5 (ABA response protein), yeast two-hybrid fusion (protein, UniProt Q9SJN0 1-442)
chain: MVTRETKLTSEREVESSMAQARHNGGGGGENHPFTSLGRQSSIYSLTLDEFQHALCENGKNFGSMNMDEFLVSIWNAEENNNNQQQAAAAAGSHSVPANHNGFNNNNNNGGEGGVGVFSGGSRGNEDANNKRGIANESSLPRQGSLTLPAPLCRKTVDEVWSEIHRGGGSGNGGDSNGRSSSSNGQNNAQNGGETAARQPTFGEMTLEDFLVKAGVVREHPTNPKPNPNPNQNQNPSSVIPAAAQQQLYGVFQGTGDPSFPGQAMGVGDPSGYAKRTGGGGYQQAPPVQAGVCYGGGVGFGAGGQQMGMVGPLSPVSSDGLGHGQVDNIGGQYGVDMGGLRGRKRVVDGPVEKVVERRQRRMIKNRESAARSRARKQAYTVELEAELNQLKEENAQLKHALAELERKRKQQYFESLKSRAQPKLPKSNGRLRTLMRNPSCPL

How the values were obtained:
YFP^C-TaFBA1 (wheat) = experiment: split reporter; BiFC: YFP N-terminal and YFP C-terminal fusions co-expressed in N. benthamiana leaves by Agrobacterium infiltration; YFP fluorescence by microscopy
TaFBA1-LUC^N (wheat) = experiment: split reporter; LCI assay: LUC N-terminal and LUC C-terminal fusions co-expressed in N. benthamiana leaves by Agrobacterium infiltration; signal read with an imaging system
[1] = molecular target: AtFBW2 (Arabidopsis TaFBA1 homologous protein), yeast two-hybrid fusion (Arabidopsis); experiment: two-hybrid; pGBKT7 and pGADT7 fusions cotransformed into yeast strain Y2H Gold; growth on SD-Leu-Trp, SD-Leu-Trp-His and SD-adenine-His-Leu-Trp at 30°C for 3 to 5 days

Row | Binder | binding [1] | further results
1 | B1 | – | binding (YFP^C-TaFBA1 (wheat)): binds
2 | B2 | – | binding (TaFBA1-LUC^N (wheat)): binds
3 | B3 | binds | –
4 | B4 | no binding | –
